US6713280
Results are given in words; binding and its absence hold for the method and conditions named. Some entries that bind do so weakly or less than the wild type.

Protein sequences, listed by entry. Tags and fused reporters are not part of them. Residues count along the entry.
UniProt P10415, residues 1-205: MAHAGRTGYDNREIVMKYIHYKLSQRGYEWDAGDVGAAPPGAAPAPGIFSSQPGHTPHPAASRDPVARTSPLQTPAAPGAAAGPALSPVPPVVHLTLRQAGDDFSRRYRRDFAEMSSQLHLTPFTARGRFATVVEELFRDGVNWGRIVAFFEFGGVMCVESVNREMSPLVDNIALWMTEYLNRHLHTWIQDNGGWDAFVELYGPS

Molecular target: GST-Bcl-2 protein (UniProt P10415)
Experiment: fluorescence polarization competition with Flu-SEQ ID NO:30, FIG. 4

binding: binds
Binder: KNLWAAQRYGRELRRMSDEFEGSFKGL (CH3(CH2)8C(O)- (decanoyl) group on the N-terminus of the peptide) [decyl-SEQ ID NO:56 (CH3(CH2)8COHN-…)]
